Among the data in PubChem BioAssay (NCATS) are AC50 values, retold here.

Each structure is given as a SMILES string. The list shows a part of the results. Shown are side measurements of this screen, not its main read-out; they come without a call. The list favours compounds with an active or inconclusive main result. Words in brackets tell the shape of the fitted curve; partial curves, single points and poor fits give uncertain potencies.

The nature of the test: S16 Schwann cell PMP22 intronic element beta-lactamase assay (AID 624044). Conditions: S16 rat Schwann cells, PMP22 element beta-lactamase FRET, 24 h; measured here: 460 nm blue channel. Put shortly:
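Rat S16 Schwann cells with beta-Lac driven by a PMP22 intronic element, compound-treated 24 h at 37 °C. LiveBLAzer FRET B/G read: 460 nm normalized to potassium clavulanate vs DMSO; 535 nm FRET as viability; concentration-effect curves classified.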
A word on the AC50: it is the concentration at which the activity in the assay is half-maximal. Low readings indicate greater potency, high ones weaker potency. For the compound `COc1cc2c(cc1O)CCN[C@@]21CS[C@H]2c3c(OC(C)=O)c(C)c4c(c3C(COC1=O)N1C2C2c3c(cc(C)c(OC)c3O)CC([C@@H]1O)N2C)OCO4` (some centres not stated), the AC50 is 0.00707 µM [falling, full curve, poor fit].
`O=C(CS(=O)Cc1ccco1)NCC=CCOc1cc(CN2CCCCC2)ccn1` (configuration not stated): the half-maximal activity concentration (AC50) was 0.0446 µM [falling, full curve, poor fit].
The value for `O=C(O)[C@H](O)[C@@H](O)[C@H](O)[C@H](O)CO` was 14.1 µM [falling, partial curve, poor fit].
As for `Oc1c(Br)cc(Br)c2cccnc12`, the AC50 is 15.8 µM [falling, partial curve].
`CCCN[C@H]1CCc2nc(N)sc2C1`: the AC50 is 0.501 µM [falling, partial curve, poor fit].
The value for `CCOCC(O)COc1ccc(NC(=O)CC[S+](C)C)cc1` (configuration not stated) was 2.82 µM [rising, full curve, poor fit].
The value for `NS(=O)(=O)c1cc(C(=O)O)cc(N2CCCC2)c1Oc1ccccc1` was 0.0848 µM [falling, full curve, poor fit]; that for `COc1cc(NS(=O)(=O)c2ccc(N)cc2)ncn1` was 4.77 µM [falling, partial curve]; that for `CN1C(CCl)Nc2cc(Cl)c(S(N)(=O)=O)cc2S1(=O)=O` (configuration not stated) was 25.1 µM [falling, single point].
On to `COc1cccc2c1C(=O)c1c(O)c3c(c(O)c1C2=O)C[C@@](O)(C(=O)CO)C[C@@H]3OC1CC(N)C(O)C(C)O1` (some centres not stated), for which the AC50 was 0.501 µM [falling, full curve].
The value for `C/C1=C2N=C(/C=C3N=C(/C(C)=C4\[N-]C(C)(C5N=C1C(C)(CCC(=O)NCC(C)OP(=O)([O-])O[C@H]1C(O)C(n6cnc7cc(C)c(C)cc76)O[C@@H]1CO)C5CC(N)=O)C(C)(CC(N)=O)C4CCC(N)=O)C(C)(CC(N)=O)C\3CCC(N)=O)C(C)(C)C/2CCC(N)=O.[CH2-]C1OC(n2cnc3c(N)ncnc32)C(O)C1O.[Co]` (some centres not stated) was 9.99 µM [falling, partial curve, poor fit].
For the compound `CC1C(=O)C(=O)C=CN1C` (configuration not stated), the AC50 was 12.6 µM [falling, single point].
`CC(C)(C)NC[C@H](O)COc1cccc2c1CCCC2=O`: the AC50 was 0.000755 µM [falling, full curve].
Regarding `COc1cc(C(=S)N2CCOCC2)ccc1O`, the AC50 is 0.0446 µM [falling, full curve, poor fit].
The value for `O=C(O)Cc1ccc(CCNS(=O)(=O)c2ccc(Cl)cc2)cc1` was 0.141 µM [falling, full curve, poor fit]; that for `NS(=O)(=O)c1cc(-c2nn[nH]n2)c(NCc2cccs2)cc1Cl` was 0.891 µM [falling, full curve, poor fit]; that for `CN=C1C=CC(=C(c2ccc(N(C)C)cc2)c2ccc(N(C)C)cc2)C=C1` was 0.999 µM [falling, full curve, poor fit].
The value for `O=C(NC1CCN(CCc2c[nH]c3ccccc23)CC1)c1ccccc1` was 25.1 µM [rising, single point].
As for `CC(C)[N+](C)(C)CC(O)COc1cccc2ccccc12` (configuration not stated), the AC50 was 0.158 µM [falling, full curve, poor fit].
The value for `NS(=O)(=O)c1cc2c(cc1Cl)N[C@@H](CC1CCCC1)NS2(=O)=O` was 2.39 µM [falling, full curve, poor fit]; that for `CNC1(C)C2CCC(C2)C1(C)C` (configuration not stated) was 14.1 µM [falling, partial curve, poor fit].
The value for `Cc1ccc(S(=O)(=O)NCl)cc1` was 0.891 µM [rising, full curve, poor fit]; that for `CCCCCCCCCCCCCCCCCCOCC(O)CO` (configuration not stated) was 3.55 µM [falling, partial curve, poor fit].
The value for `CNC(=O)[C@H](Cc1c[nH]c2ccccc12)NC(=O)[C@@H](CC(=O)NO)CC(C)C` was 25.1 µM [falling, single point]; that for `CC(C)COC(=O)OCN1C(=O)CN(CCN2CC(=O)N(COC(=O)OCC(C)C)C(=O)C2)CC1=O` was 17.8 µM [falling, single point]; that for `CCCCC(=O)OCC(=O)[C@]1(O)Cc2c(O)c3c(c(O)c2[C@H](OC2CC(NC(=O)C(F)(F)F)C(O)C(C)O2)C1)C(=O)c1c(OC)cccc1C3=O` (some centres not stated) was 2.51 µM [falling, full curve].
For the compound `CC(C)CC(NC(=O)C(COC(C)(C)C)NC(=O)C(Cc1ccc(O)cc1)NC(=O)C(CO)NC(=O)C(Cc1c[nH]c2ccccc12)NC(=O)C(Cc1cnc[nH]1)NC(=O)C1CCC(=O)N1)C(=O)NC(CCCN=C(N)N)C(=O)N1CCCC1C(=O)NNC(N)=O` (configuration not stated), the AC50 was 0.891 µM [falling, full curve, poor fit].
